Measurements: the supplement of paper PMC12823440, “Inhibitors supercharge kinase turnover through native proteolytic circuits” (Nature, 2025)
The other results are listed elsewhere or left out. Hit calls seldom repeat between salt and free forms of one compound.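 Kinases were expressed as nanoluciferase fusions in K562 cells and luminescence was read every 4 h between 2 and 18 h as percent of control, DMSO set to 100% and a positive control to 0%. A time point counts as decreased when the signal drops significantly (2 sigma). The hit call is the authors' own, does not follow from the count of time points alone, and its rule is not shown.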

Sequences of proteins named here, by UniProt entry; tags and fusion partners are left off. A change or cut given only in a name is not applied to a line headed by its entry.
UniProt Q9UQB9: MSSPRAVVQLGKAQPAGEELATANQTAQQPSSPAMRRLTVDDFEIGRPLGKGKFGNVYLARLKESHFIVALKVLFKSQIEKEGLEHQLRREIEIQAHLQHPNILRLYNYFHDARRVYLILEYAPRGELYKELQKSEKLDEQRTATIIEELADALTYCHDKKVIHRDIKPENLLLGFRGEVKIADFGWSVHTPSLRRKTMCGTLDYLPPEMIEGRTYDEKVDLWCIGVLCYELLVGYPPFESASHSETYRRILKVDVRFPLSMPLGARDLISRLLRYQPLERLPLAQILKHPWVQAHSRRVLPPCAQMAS
UniProt P06239: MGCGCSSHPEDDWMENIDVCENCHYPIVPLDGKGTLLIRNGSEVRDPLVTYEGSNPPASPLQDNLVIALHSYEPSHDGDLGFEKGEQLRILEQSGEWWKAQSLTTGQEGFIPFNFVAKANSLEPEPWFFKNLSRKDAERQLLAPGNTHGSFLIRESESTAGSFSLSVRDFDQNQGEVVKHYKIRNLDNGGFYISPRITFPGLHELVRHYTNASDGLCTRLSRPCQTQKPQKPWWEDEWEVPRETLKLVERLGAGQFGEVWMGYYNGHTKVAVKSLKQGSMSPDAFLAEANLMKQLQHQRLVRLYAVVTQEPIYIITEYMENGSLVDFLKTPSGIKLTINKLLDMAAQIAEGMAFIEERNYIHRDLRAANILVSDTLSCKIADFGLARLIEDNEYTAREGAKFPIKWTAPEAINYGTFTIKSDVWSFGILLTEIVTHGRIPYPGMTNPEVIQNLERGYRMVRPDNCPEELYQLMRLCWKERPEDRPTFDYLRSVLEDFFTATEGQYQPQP
UniProt P28482, whole entry: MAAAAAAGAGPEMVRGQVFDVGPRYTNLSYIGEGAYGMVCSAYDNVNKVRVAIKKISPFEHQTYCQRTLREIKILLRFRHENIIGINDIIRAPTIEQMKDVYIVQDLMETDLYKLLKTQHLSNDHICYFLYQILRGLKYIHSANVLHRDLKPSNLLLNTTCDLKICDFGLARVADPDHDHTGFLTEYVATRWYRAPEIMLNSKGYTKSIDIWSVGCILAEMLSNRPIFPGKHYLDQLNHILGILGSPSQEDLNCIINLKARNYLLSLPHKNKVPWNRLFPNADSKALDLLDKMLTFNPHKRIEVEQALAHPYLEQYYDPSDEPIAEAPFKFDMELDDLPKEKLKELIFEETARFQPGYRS
UniProt Q13555: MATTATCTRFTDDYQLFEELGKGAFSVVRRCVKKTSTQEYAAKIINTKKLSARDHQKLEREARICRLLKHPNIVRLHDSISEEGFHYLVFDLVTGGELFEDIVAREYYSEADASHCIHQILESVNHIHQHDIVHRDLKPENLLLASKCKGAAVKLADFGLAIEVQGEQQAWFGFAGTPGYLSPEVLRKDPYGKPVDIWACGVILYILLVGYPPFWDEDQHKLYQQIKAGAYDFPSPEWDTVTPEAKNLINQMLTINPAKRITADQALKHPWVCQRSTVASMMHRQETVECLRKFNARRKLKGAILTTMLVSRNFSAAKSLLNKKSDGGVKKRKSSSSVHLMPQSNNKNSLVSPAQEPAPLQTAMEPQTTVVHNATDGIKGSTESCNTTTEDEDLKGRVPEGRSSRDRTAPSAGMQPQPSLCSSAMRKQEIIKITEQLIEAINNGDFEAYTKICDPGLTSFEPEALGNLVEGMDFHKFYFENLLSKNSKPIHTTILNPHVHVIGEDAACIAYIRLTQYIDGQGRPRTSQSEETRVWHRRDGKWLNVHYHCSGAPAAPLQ
UniProt Q13131: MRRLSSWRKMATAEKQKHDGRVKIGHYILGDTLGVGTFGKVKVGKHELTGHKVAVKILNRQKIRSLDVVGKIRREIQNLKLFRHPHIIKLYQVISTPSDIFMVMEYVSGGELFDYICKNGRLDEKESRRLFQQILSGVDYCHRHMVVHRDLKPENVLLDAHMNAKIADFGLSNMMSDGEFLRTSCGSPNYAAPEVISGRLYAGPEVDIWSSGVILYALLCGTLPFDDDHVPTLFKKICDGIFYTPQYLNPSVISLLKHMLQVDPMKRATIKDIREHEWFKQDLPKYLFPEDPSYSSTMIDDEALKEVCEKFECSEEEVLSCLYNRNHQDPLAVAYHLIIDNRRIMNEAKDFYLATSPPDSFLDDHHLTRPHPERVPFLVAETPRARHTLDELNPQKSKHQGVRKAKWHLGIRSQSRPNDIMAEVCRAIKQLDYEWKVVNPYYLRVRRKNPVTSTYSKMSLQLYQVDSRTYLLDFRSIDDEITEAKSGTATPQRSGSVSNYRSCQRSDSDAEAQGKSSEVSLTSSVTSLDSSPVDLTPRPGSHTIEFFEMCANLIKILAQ
UniProt P10398: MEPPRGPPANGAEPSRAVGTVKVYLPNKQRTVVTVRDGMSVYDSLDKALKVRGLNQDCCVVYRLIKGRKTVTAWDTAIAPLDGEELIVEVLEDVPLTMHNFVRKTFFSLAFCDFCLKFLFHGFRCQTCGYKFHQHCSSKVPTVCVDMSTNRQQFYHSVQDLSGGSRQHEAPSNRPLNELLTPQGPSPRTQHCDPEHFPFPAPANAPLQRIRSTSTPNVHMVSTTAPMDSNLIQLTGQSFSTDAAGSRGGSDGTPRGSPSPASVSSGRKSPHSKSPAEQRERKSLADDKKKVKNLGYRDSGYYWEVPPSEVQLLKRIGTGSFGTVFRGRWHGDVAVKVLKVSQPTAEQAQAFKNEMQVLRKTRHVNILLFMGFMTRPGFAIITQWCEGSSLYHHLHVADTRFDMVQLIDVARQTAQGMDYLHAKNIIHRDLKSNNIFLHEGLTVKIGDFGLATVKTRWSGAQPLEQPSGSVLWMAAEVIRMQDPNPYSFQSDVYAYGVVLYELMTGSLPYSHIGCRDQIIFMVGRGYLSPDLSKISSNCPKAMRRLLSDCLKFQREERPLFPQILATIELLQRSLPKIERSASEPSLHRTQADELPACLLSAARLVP

Columns and labels:
Assay in all cases: number of time points (of 5) at which kinase-Nluc abundance scored as decreased, DMSO-normalised (count); higher = more persistent destabilization
[1] = compound: CCS(=O)(=O)N1CCN(c2ccc(Nc3ncc(C(N)=O)c(NC4CC4)n3)cc2)CC1 [Cerdulatinib (hydrochloride)]; details: 10 µM; K562; 2-18 h
[2] = compound: CCS(=O)(=O)N1CCN(c2ccc(Nc3ncc(C(N)=O)c(NC4CC4)n3)cc2)CC1 [Cerdulatinib]; details: 10 µM; K562; 2-18 h
[3] = compound: CCc1nc(C(N)=O)c(Nc2ccc(N3CCC(N4CCN(C)CC4)CC3)c(OC)c2)nc1NC1CCOCC1 [Gilteritinib hemifumarate]; details: 2 µM; K562; 2-18 h
[4] = compound: CCc1nc(C(N)=O)c(Nc2ccc(N3CCC(N4CCN(C)CC4)CC3)c(OC)c2)nc1NC1CCOCC1 [Gilteritinib]; details: 2 µM; K562; 2-18 h
[5] = compound: CN(C)C(=N)NC(=N)N [Metformin (hydrochloride)]; details: 10 µM; K562; 2-18 h
[6] = compound: CN(C)C(=N)NC(=N)N [Metformin]; details: 10 µM; K562; 2-18 h
[7] = compound: CN(C)C(=O)c1cc2cnc(Nc3ccc(N4CCNCC4)cn3)nc2n1C1CCCC1 [Ribociclib hydrochloride]; details: 2.5 µM; K562; 2-18 h
[8] = compound: CN(C)C(=O)c1cc2cnc(Nc3ccc(N4CCNCC4)cn3)nc2n1C1CCCC1 [Ribociclib succinate hydrate]; details: 2.5 µM; K562; 2-18 h
[9] = compound: CN(C)C(=O)c1cc2cnc(Nc3ccc(N4CCNCC4)cn3)nc2n1C1CCCC1 [Ribociclib succinate]; details: 10 µM; K562; 2-18 h
[10] = compound: CN(C)C(=O)c1cc2cnc(Nc3ccc(N4CCNCC4)cn3)nc2n1C1CCCC1 [Ribociclib]; details: 10 µM; K562; 2-18 h
[11] = compound: CN(C)C/C=C/C(=O)Nc1cc2c(Nc3ccc(F)c(Cl)c3)ncnc2cc1O[C@H]1CCOC1 [Afatinib (dimaleate)]; details: 2.5 µM; K562; 2-18 h
[12] = compound: CN(C)C/C=C/C(=O)Nc1cc2c(Nc3ccc(F)c(Cl)c3)ncnc2cc1O[C@H]1CCOC1 [Afatinib]; details: 10 µM; K562; 2-18 h
[13] = compound: CN1CCCN(C(=O)c2cccc(-c3ccc(/C=C4/C(=O)Nc5ccc(Cl)cc54)o3)c2)CC1 [CX-6258 (hydrochloride hydrate)]; details: 2.5 µM; K562; 2-18 h
[14] = compound: CN1CCCN(C(=O)c2cccc(-c3ccc(/C=C4/C(=O)Nc5ccc(Cl)cc54)o3)c2)CC1 [CX-6258 (hydrochloride)]; details: 2.5 µM; K562; 2-18 h
[15] = compound: CN1CCCN(C(=O)c2cccc(-c3ccc(/C=C4/C(=O)Nc5ccc(Cl)cc54)o3)c2)CC1; details: 2.5 µM; K562; 2-18 h
[16] = compound: CNC(=O)c1cc(Oc2ccc(NC(=O)Nc3ccc(Cl)c(C(F)(F)F)c3)c(F)c2)ccn1 [Regorafenib (monohydrate)]; details: 2.5 µM; K562; 2-18 h
[17] = compound: CNC(=O)c1cc(Oc2ccc(NC(=O)Nc3ccc(Cl)c(C(F)(F)F)c3)c(F)c2)ccn1 [Regorafenib]; details: 2.5 µM; K562; 2-18 h
[18] = compound: CNC(=O)c1ccc(Nc2ncc(C(F)(F)F)c(NCc3nccnc3N(C)S(C)(=O)=O)n2)cc1 [Defactinib (hydrochloride)]; details: 10 µM; K562; 2-18 h
[19] = compound: CNC(=O)c1ccc(Nc2ncc(C(F)(F)F)c(NCc3nccnc3N(C)S(C)(=O)=O)n2)cc1 [Defactinib]; details: 10 µM; K562; 2-18 h
[20] = compound: CNC(=O)c1ccccc1Nc1cc(Nc2ccc(N3CCOCC3)cc2OC)ncc1C(F)(F)F [PND-1186 (hydrochloride)]; details: 10 µM; K562; 2-18 h

Target | number of time points [1] | number of time points [2] | number of time points [3] | number of time points [4] | number of time points [5] | number of time points [6] | number of time points [7] | number of time points [8] | number of time points [9] | number of time points [10] | number of time points [11] | number of time points [12] | number of time points [13] | number of time points [14] | number of time points [15] | number of time points [16] | number of time points [17] | number of time points [18] | number of time points [19] | number of time points [20]
AURKC (UniProt Q9UQB9) | 3 | 0 | 0 | 0 | 0 | 0 | 0 | 0 | 0 | 0 | 0 | 0 | 0 | 0 | 0 | 0 | 0 | 0 | 0 | 0
LCK (UniProt P06239) | 0 | 0 | 0 | 0 | 0 | 0 | 0 | 0 | 0 | 0 | 0 | 0 | 0 | 0 | 0 | 0 | 0 | 0 | 0 | 0
EGFR (UniProt P00533) | 0 | 0 | 0 | 0 | 0 | 0 | 0 | 0 | 0 | 0 | – | – | 0 | 0 | 0 | 0 | 1 | 0 | 0 | 0
MAPK1 (UniProt P28482) | 0 | 0 | 0 | 0 | 0 | 0 | 0 | 0 | 0 | 0 | 0 | 0 | 0 | 0 | 0 | 0 | 0 | 0 | 0 | 0
CAMK2G (UniProt Q13555) | 3 | 0 | 0 | 0 | 0 | 0 | 0 | 0 | 0 | 0 | 0 | 0 | 0 | 0 | 0 | 0 | 2 | 0 | 0 | 0
MAP2K1 (UniProt Q02750) | 0 | 0 | 0 | 0 | 0 | 0 | 0 | 0 | 0 | 0 | 0 | 0 | 0 | 0 | 0 | 0 | 0 | 0 | 0 | 0
PRKAA1 (UniProt Q13131) | 2 | 0 | 0 | 0 | 0 | 0 | 0 | 0 | 0 | 0 | 0 | 0 | 0 | 0 | 0 | 0 | 0 | 0 | 0 | 0
ARAF (UniProt P10398) | 0 | 0 | 0 | 0 | 0 | 0 | 0 | 0 | 0 | 0 | 0 | 0 | 0 | 0 | 0 | 0 | 0 | 0 | 0 | 0
